# PubChem BioAssay AID1688 (National Center for Advancing Translational Sciences (NCATS), 2009)
# Out of some 220,000 compounds screened, about 2,400 (1.1%) were called active. Inconclusive means that the source gave no clear call. Such entries were picked first, then a sample of the others. Calls follow the shape of the dose curve; as a rule, active = well fitted inhibition curve with a large enough effect; inconclusive = small, poorly fitted or top-dose-only effect, or effect the other way; inactive = no such curve, though single readings can be large or run the other way. Where the call is inconclusive, the potency comes from a doubtful curve fit.
# Assay: qHTS Multiplex Assay to Identify Dual Action Probes in a Cell Model of Huntington: Aggregate Formation (GFP); also: nearly all actives have a fitted effect of over 60% in size
# Details: PC12 HttQ103-GFP aggregates, Acumen cytometry, 40 h; activity change, negative = inhibition: at 46.1 µM (top of the series) unless noted
# How it was run: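 Huntingtin Q103 exon 1–GFP aggregates in induced PC12 cells (100 nM tebufenozide) were quantified by cytometry from lysates, with compounds dosed in titration.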
# % is scaled to controls: 0 for no effect and ±100 for the full control effect; potency is read from the fitted curve at half-maximal effect.
Structure (SMILES),Potency,"activity change, negative = inhibition"
C#CCN(C)CC/C=C1\c2ccccc2CSc2ccccc21,"inconclusive: 35.5 µM [inhibitor, single point]",
Cc1ccc(Cl)c2c1NC(=O)C2(O)CC(=O)c1ccc(Br)cc1 (centres undefined),"inconclusive: 6.31 µM [activator, partial curve]",
CC1CCN(c2ccc(C(=O)Nc3nnc(C4CC4)s3)cc2[N+](=O)[O-])CC1,"inconclusive: 5.62 µM [activator, single point]",
Cn1c(=O)c2c(Nc3ccc(F)cc3)cc(=O)n(-c3ccccc3)c2n(C)c1=O,,inactive: -17.9% [at 9.22 µM]
CC(=O)Nc1ccc(NC2=C(Cl)C(=O)c3ccccc3C2=O)cc1,"inconclusive: 5.01 µM [inhibitor, full curve, poor fit]",
COC(=O)c1ccc2c(c1)NC(=O)C(N1CCCC1)S2 (centres undefined),"inconclusive: 1.41 µM [activator, single point]",
COc1ccccc1-c1nc2n(n1)C(c1ccccc1Cl)C(C(N)=O)=C(C)N2 (centres undefined),"inconclusive: 6.31 µM [activator, partial curve, poor fit]",
COc1ccc(C(C)=O)cc1CSc1nc2ccccc2o1,"inconclusive: 0.562 µM [inhibitor, full curve]",
Cc1ccc(NC(=O)CSc2nnc(NC(=O)CN3CCOCC3)s2)cc1,"inconclusive: 5.62 µM [inhibitor, single point]",
C=CCNc1ncnc2c1ncn2C1OC(CO)C(O)C1O (centres undefined),"inconclusive: 14.1 µM [activator, partial curve]",
O=C(O)Cc1ccc(C(=O)c2cccs2)s1,inactive,
O=C(CN1CCCC1)NCC12CC3CC(CC(C3)C1)C2,inactive,
CCN(c1ccccc1)S(=O)(=O)c1ccc(Cl)c(NC(=O)Nc2ccc(Cl)cc2C#N)c1,"inconclusive: 22.4 µM [inhibitor, single point]",
O=C(CSc1oc(-c2ccc(F)cc2)nc1S(=O)(=O)c1ccc(F)cc1)NCC1CCCO1 (centres undefined),inactive,
CCC(C)n1c(NC(=O)c2ccccc2)c(C#N)c2nc3ccccc3nc21 (centres undefined),"inconclusive: 15.8 µM [inhibitor, single point]",
COc1ccc(NC(=S)NC23CN4CN(CN(C4)C2)C3)c(OC)c1,inactive,
O=C(Nc1ccc(N2CCN(C(=O)c3ccccc3)CC2)cc1)c1ccc2c(c1)OCO2,"inconclusive: 10 µM [inhibitor, partial curve]",
Cc1ccc(-c2cc(NC(=O)CCl)n(-c3ccccc3)n2)cc1,"inconclusive: 35.5 µM [inhibitor, single point]",
CC(Nc1cccnc1)=C(C#N)C#N,inactive,
CCCCC(=O)Nc1cccn2ncnc12,"inconclusive: 31.6 µM [inhibitor, partial curve]",
Cc1ccccc1OCCn1cnc2cc([N+](=O)[O-])ccc2c1=O,"inconclusive: 3.98 µM [activator, full curve, poor fit]",
COc1ccc(/C=C/C(O)=C(\C#N)c2nnc(N3CCOCC3)n2-c2ccccc2)cc1OC,inactive,

Structure (SMILES),Potency,"activity change, negative = inhibition"
CCn1c(=O)c(C(=O)NNS(=O)(=O)c2ccc(Cl)cc2)c(O)c2ccccc21,"inconclusive: 15.8 µM [inhibitor, single point]",
COc1cc(NC(=O)c2ccc3c(=O)n(Cc4ccco4)c(=S)[nH]c3c2)cc(OC)c1OC,"inconclusive: 3.98 µM [inhibitor, single point]",
CCOC(=O)CCC(=O)NCc1ccc2c(c1)cc(C)n2C,"inconclusive: 5.62 µM [activator, single point]",
COc1ccc(C(CCNCc2ccc(F)cc2)c2ccc(F)cc2)cc1 (centres undefined),"inconclusive: 35.5 µM [inhibitor, single point]",
O=C(NCc1ccc(Cl)cc1)c1cc(-c2ccco2)on1,"inconclusive: 35.5 µM [inhibitor, single point]",
COc1ccc(OC)c(C2C(C#N)=C(N)Oc3cc(C)[nH]c(=O)c32)c1 (centres undefined),inactive,
O=C(O)CCCc1nc2ccccc2s1,"inconclusive: 0.112 µM [inhibitor, partial curve, poor fit]",
COc1ccc(C(C)=O)cc1COC(=O)c1cccc(N(C)C)c1,inactive,
CC(C)(C)NC(=O)C(c1ccccn1)N(C(=O)C1CSC(=O)C1)c1ccc(F)cc1 (centres undefined),inactive,
COc1ccc(-c2cc3nc(C4CCN(C(=O)OC(C)(C)C)CC4)c(C(=O)O)cn3n2)cc1,"inconclusive: 0.708 µM [inhibitor, full curve, poor fit]",
CN(C)c1nc(N)c([N+](=O)[O-])c(NCc2ccccc2)n1,"inconclusive: 7.08 µM [activator, full curve]",
CC(C)C(=O)Nc1cccc(NC(=S)NC(=O)C(c2ccccc2)c2ccccc2)c1,"inconclusive: 35.5 µM [inhibitor, single point]",
O=C(Nc1ccccc1)N1N=C(c2ccc(F)cc2)CC1c1ccc(F)cc1 (centres undefined),inactive,
CC(C)(C)c1ccc(C(=O)NNc2cc(N3CCCCC3)nc(N3CCCCC3)n2)cc1,"inconclusive: 35.5 µM [inhibitor, partial curve]",
CNC(=O)C(Sc1nc(C)nc2c1oc1ccccc12)C(C)=O (centres undefined),inactive,
COc1ccc([N+](=O)[O-])cc1NC(=S)NC(C)=O,"inconclusive: 1.26 µM [activator, single point]",
CCS(=O)(=O)Nc1cccc(C2=NN(S(=O)(=O)c3ccc(C)cc3)C(c3cccs3)C2)c1 (centres undefined),inactive,
COc1cc(NC(=O)CSc2nc3c(C)ccc(C)c3cc2C)c(C(=O)O)cc1OC,"inconclusive: 31.6 µM [activator, single point]",
COc1ccc(N2C(=O)C(Cl)=C(Oc3cccc(OC)c3)C2=O)cc1,"inconclusive: 35.5 µM [inhibitor, single point]",
COc1cccc(/C=N/NC(=O)C(=O)NCc2ccco2)c1O,"inconclusive: 10 µM [inhibitor, partial curve]",
COC(=O)c1ccc(NC(=O)CSc2nnc(-c3ccncc3)n2N)cc1,inactive,
CCn1cc(C(=O)NCc2ccc3c(c2)OCO3)c(=O)c2cc(F)c(N3CCN(C(=O)c4ccco4)CC3)cc21,"inconclusive: 35.5 µM [inhibitor, single point]",

# Reformatted with bars between the fields: entries from further up.
Structure (SMILES) | Potency | activity change, negative = inhibition
Cn1c(=O)c2c(Nc3ccc(F)cc3)cc(=O)n(-c3ccccc3)c2n(C)c1=O |  | inactive: -17.9% [at 9.22 µM]
O=C(Nc1ccccc1)N1N=C(c2ccc(F)cc2)CC1c1ccc(F)cc1 (centres undefined) | inactive | 
CC(C)(C)c1ccc(C(=O)NNc2cc(N3CCCCC3)nc(N3CCCCC3)n2)cc1 | inconclusive: 35.5 µM [inhibitor, partial curve] | 
